For at least one entry, the source does not settle the construct or the ends of the probe. At least one result comes from cells or an extract, where the contact may be indirect.

Amino acid sequences for entries named in this document (tags omitted).
UniProt P12004, whole entry: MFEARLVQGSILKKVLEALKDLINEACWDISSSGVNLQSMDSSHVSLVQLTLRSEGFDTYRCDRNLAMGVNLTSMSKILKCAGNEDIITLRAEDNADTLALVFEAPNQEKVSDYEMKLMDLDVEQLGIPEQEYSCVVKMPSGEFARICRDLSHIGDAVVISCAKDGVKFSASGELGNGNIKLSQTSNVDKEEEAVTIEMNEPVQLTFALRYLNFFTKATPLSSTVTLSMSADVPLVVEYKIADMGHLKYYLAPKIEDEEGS

For this series, the target named is His-PCNA in E. coli total protein extract (Homo sapiens) (UniProt P12004). Nature of the series: pull-down. The conditions noted are these: purification from extract at 2.0 mg/ml; AS buffer 5 mM MgCl2, eluted with 50 mM Tris pH 7.5; protein in an extract; protein details: His-tag (aptamer target), overexpressed in E. coli; label: 5'-biotin; single-stranded DNA.

Consider “GTTTGCCGGTGGGCAGGTTTAGGGTCTGCTCGGGATTGCGGAGGAACATGCGTCGCAAAC [aptamer B1]”, for which the binding result is recorded as “binds”.

The values above are taken from US20160060631.
